Assay results taken from publication PMC5410327.

By UniProt entry, the sequences of proteins in these tests, tags left out.
UniProt Q86TM6: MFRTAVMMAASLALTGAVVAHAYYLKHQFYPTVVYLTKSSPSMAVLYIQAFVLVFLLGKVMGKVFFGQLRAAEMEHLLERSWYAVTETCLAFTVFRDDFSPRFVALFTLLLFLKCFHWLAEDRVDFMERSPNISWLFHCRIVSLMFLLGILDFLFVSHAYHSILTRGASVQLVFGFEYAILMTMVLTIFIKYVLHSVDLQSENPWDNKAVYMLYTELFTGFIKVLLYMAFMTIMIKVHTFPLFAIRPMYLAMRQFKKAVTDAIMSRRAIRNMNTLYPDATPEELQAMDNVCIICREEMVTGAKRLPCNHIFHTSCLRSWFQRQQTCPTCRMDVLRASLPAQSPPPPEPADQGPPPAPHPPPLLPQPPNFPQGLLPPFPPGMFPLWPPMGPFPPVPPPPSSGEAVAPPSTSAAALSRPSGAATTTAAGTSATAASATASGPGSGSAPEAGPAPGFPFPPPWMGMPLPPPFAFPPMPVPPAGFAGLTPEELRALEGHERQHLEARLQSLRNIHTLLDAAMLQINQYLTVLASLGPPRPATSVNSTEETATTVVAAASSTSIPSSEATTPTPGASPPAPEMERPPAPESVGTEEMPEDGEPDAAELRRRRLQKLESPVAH

Target: HRD1 (overexpressed) (UniProt Q86TM6)
Experiment: affinity purification with mass spectrometry; MCF7 cells overexpressing Vector or HRD1; IP samples run on SDS-PAGE, stained with Coomassie Brilliant Blue, the two whole lanes cut out for proteome analysis

B1: S100A8 (protein, UniProt P05109 1-93)
chain: MLTELEKALNSIIDVYHKYSLIKGNFHAVYRDDLKKLLETECPQYIRKKGADVWFKELDINTDGAVNFQEFLILVIKMGVAAHKKSHEESHKE
- binding: binds

Results are given in words; binding and its absence hold for the method and conditions named. Binding seen in cells or lysates may run through a third protein. A yes stands for co-enrichment or nearness to the bait. Other partners may have been found.
